PubChem BioAssay AID686938, Drosophila RNAi Screening Center, 2013

Screen: 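Fly genes required for calcium entry once internal stores are emptied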 (primary screen)
Cell system: Drosophila S2R+ cells
Knock-down reagent: long dsRNA against Drosophila genes, about 0.25 µg dsRNA per well, roughly 10,000 cells
Timing: 5 days of knock-down before the calcium assay
Treatment: thapsigargin (SERCA pump blocker) to empty calcium stores; entry signal taken 4 min after adding it
Measured: 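Duplicate raw fluo-4 intensities per well from a plate reader, at rest and four minutes after thapsigargin emptied calcium stores; entry-to-rest ratio filled for only some wells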
Reading the numbers: calcium entry signal: higher = stronger calcium signal after store depletion; entry to resting ratio: higher = more calcium entry relative to resting level; resting calcium signal: higher = higher resting calcium signal
Hit rule: 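Called when the plate z-score of the entry-to-rest ratio, mean of duplicates, falls below −3; wells with low overall dye signal (Fmax z below −2) or more than five off-targets excluded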
Meaning of the calls: active = strongly reduced calcium entry; inactive = no strong reduction
In all, the deposit lists about 23,000 reagents; shown is a random part of those that have a named target and a result. Over the whole deposit, 75 (0.33%) are marked active. 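Raw plate signals without normalisation; calls rest on plate z-scores that were not deposited; ratio present for only 364 wells.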 Names joined by + are all predicted targets of the reagent. No sequences are given here. Not given: the dose of the treatment.

predicted target,amplicon,"calcium entry signal, replicate 1 (fluorescence units)","calcium entry signal, replicate 2 (fluorescence units)",entry to resting ratio,"resting calcium signal, replicate 1 (fluorescence units)","resting calcium signal, replicate 2 (fluorescence units)",Outcome
Pdk1,DRSC08682,2.51e7,4.14e7,,1.39e7,1.83e7,inactive
zen2,DRSC12633,4.18e7,3.16e7,,2.11e7,1.61e7,inactive
csw,DRSC18756,3.84e7,5.19e7,2.1,1.87e7,2.09e7,inactive
csw,DRSC23326,3.80e7,2.62e7,,2.12e7,1.30e7,inactive
CG14154,DRSC10156,2.56e7,3.18e7,,1.37e7,1.42e7,inactive
CG4004,DRSC19791,4.29e7,4.61e7,,1.84e7,2.13e7,inactive
CG4004,DRSC19882,3.24e7,5.65e7,,1.65e7,2.45e7,inactive
CG6216,DRSC10606,3.58e7,4.93e7,,1.60e7,2.06e7,inactive
CG1847,DRSC19810,2.45e7,3.09e7,,1.24e7,1.46e7,inactive
nol,DRSC21425,3.64e7,3.40e7,,2.32e7,1.63e7,inactive
CG2021,DRSC08546,3.60e7,3.67e7,,1.85e7,1.65e7,inactive
PGAP2,DRSC00632,1.39e7,,,1.05e7,,inactive
CG9286,DRSC16467,2.49e7,3.24e7,,1.27e7,1.62e7,inactive
Hsp67Bc,DRSC11193,2.09e7,3.45e7,,1.18e7,1.44e7,inactive
orb2 + CG43783,DRSC10540,5.12e7,3.12e7,,3.48e7,1.43e7,inactive
orb2 + CG43783,DRSC10541,3.25e7,4.62e7,,1.61e7,2.02e7,inactive
orb2 + CG43783,DRSC10542,5.00e7,3.44e7,,3.39e7,1.31e7,inactive
CG31204,DRSC15106,3.48e7,4.04e7,2.2,1.56e7,1.69e7,inactive
CG13613,DRSC14616,4.08e7,5.74e7,,2.34e7,2.19e7,inactive
flr,DRSC09787,4.15e7,6.39e7,,2.48e7,4.06e7,inactive
RpL11,DRSC07537,1.39e7,9.85e6,,9.15e6,7.80e6,inactive
CG13042,DRSC09923,4.75e7,5.44e7,,2.04e7,2.43e7,inactive
CG13870,DRSC06429,3.89e7,3.99e7,,1.81e7,2.05e7,inactive
CG4230,DRSC02740,4.16e7,,,2.08e7,,inactive
CG3552,DRSC10370,2.53e7,3.20e7,,1.31e7,1.44e7,inactive
Chchd2,DRSC19931,4.49e7,2.92e7,,2.28e7,1.53e7,inactive
CG10970,DRSC17772,2.95e7,3.15e7,,1.51e7,1.41e7,inactive
wap,DRSC20626,3.44e7,3.92e7,,1.56e7,1.85e7,inactive
CG11710,DRSC20485,5.53e7,4.82e7,,2.62e7,1.99e7,inactive
vls,DRSC02101,3.21e7,,,1.92e7,,inactive
Mp20,DRSC07474,2.63e7,4.56e7,,1.45e7,1.94e7,inactive
PIG-S,DRSC14643,5.68e7,4.24e7,,2.47e7,1.86e7,inactive
PIG-S,DRSC15388,3.75e7,4.50e7,,1.77e7,1.96e7,inactive
PIG-S,DRSC15952,4.69e7,4.59e7,,2.11e7,1.89e7,inactive
CG10553,DRSC14254,2.97e7,8.32e7,,1.76e7,3.43e7,inactive
ena,DRSC05779,3.95e7,3.28e7,,1.90e7,1.82e7,inactive
ena,DRSC07610,3.14e7,2.98e7,,1.43e7,1.43e7,inactive
CG9784,DRSC20210,2.76e7,2.48e7,,1.43e7,1.22e7,inactive
CG2186,DRSC19838,2.24e7,3.48e7,,1.13e7,1.49e7,inactive
CG5214,DRSC15739,3.44e7,4.41e7,,1.72e7,2.06e7,inactive
CG5214,DRSC22842,3.05e7,4.47e7,,1.42e7,1.97e7,inactive
CysRS,DRSC05948,3.34e7,5.98e7,,1.54e7,2.69e7,inactive
Ir56a,DRSC05776,3.55e7,3.63e7,,1.72e7,1.97e7,inactive
CG12768,DRSC11680,2.71e7,4.46e7,,1.32e7,1.94e7,inactive
CG12768,DRSC23215,3.86e7,4.03e7,,1.91e7,1.85e7,inactive
dgt3,DRSC04349,2.90e7,,,1.64e7,,inactive
Rab5,DRSC00777,6.27e7,,,4.10e7,,active
CG3739,DRSC15510,3.28e7,3.64e7,,4.33e7,1.66e7,inactive
Gr64f,DRSC08447,4.76e7,5.00e7,,2.27e7,2.21e7,inactive
CG14313,DRSC14792,3.42e7,4.33e7,,7.78e7,1.83e7,inactive
Adss,DRSC14162,3.83e7,3.41e7,,1.76e7,1.55e7,inactive
CG3795,DRSC18593,2.92e7,4.10e7,,1.39e7,1.96e7,inactive
Acbp5,DRSC10548,3.18e7,4.36e7,,1.49e7,1.81e7,inactive
Ccp84Aa,DRSC12586,4.47e7,3.34e7,,2.22e7,1.59e7,inactive
CG12857,DRSC06197,3.30e7,3.14e7,,1.68e7,1.52e7,inactive
qkr58E-2,DRSC04710,1.86e7,2.66e7,,1.06e7,1.20e7,inactive
Msh6,DRSC10759,3.35e7,5.00e7,,1.82e7,2.12e7,inactive
CG4286,DRSC04459,3.13e7,4.16e7,,1.81e7,1.83e7,inactive
